The results are deposited in PubChem (AID1053133; Broad Institute, 2014).

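Vaccinia-infected cells with a two-color viral stage reporter; Venus fluorescence read on a plate reader; the cell line is not named here; timing not stated here.
The test concentration is not given here.
Percent change in Venus reporter signal; lower (more negative) values mean stronger inhibition of that viral stage.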

Values are in %.
The controls that fix the scale are not given here.
Common to all entries: measured here: Venus reporter, other viral stage.
This is a side read-out of the assay, for part of the compounds, not drawn at random.

Result for COCCOC(=O)N1C(=O)[C@@]2(c3ccccc31)[C@H](c1ccccc1OCCO)N1[C@H](c3ccccc3)[C@H](c3ccccc3)OC(=O)[C@H]1[C@@H]2C(N)=O was activity change (Venus) -43.85%. With COc1ccc(CN(C)C[C@@H]2OCCCC[C@@H](C)Oc3ccc(NC(=O)Nc4ccc(C(F)(F)F)cc4)cc3C(=O)N([C@@H](C)CO)C[C@@H]2C)cc1 the assay gave activity change (Venus) -35.33%. Result for C[C@@H]1CN([C@@H](C)CO)C(=O)c2c(c3ccccc3n2C)-c2ccccc2CO[C@H]1CN(C)S(=O)(=O)c1ccccc1 was activity change (Venus) -51.24%. With C[C@H](CO)N1C[C@H](C)[C@H](CN(C)C(=O)Nc2ccccc2)Oc2ncc(C#Cc3cccc(F)c3)cc2C1=O the assay gave activity change (Venus) -36.26%.

COc1ccc2c3c(n(C)c2c1)[C@@H](CO)N(C(=O)C1CC1)CC31CCN(C(=O)Nc2cccc(F)c2)CC1 read activity change (Venus) -38.39%. With C[C@@H]1CN([C@@H](C)CO)C(=O)c2cc(NC(=O)Nc3ccc(F)cc3)ccc2O[C@H]1CN(C)Cc1ccc(Oc2ccccc2)cc1 the assay gave activity change (Venus) -34.16%. For CC(C)(C)S(=O)N1Cc2cc(C(=O)NCCCN3CCOCC3)nc(-c3cccc(C#CCC4CCCC4)c3)c2[C@@H]1CCO (stereo partly shown) the result was activity change (Venus) -68.57%. For C[C@@H]1CCCCO[C@@H](CN(C)Cc2ccc(Cl)c(Cl)c2)[C@H](C)CN([C@@H](C)CO)C(=O)c2cc(NS(=O)(=O)c3cn(C)cn3)ccc2O1 the result was activity change (Venus) -33.77%.

Result for CCCN(C)C[C@@H]1OCCCC[C@H](C)Oc2ccc(NC(=O)c3ccccc3)cc2C(=O)N([C@@H](C)CO)C[C@@H]1C was activity change (Venus) -35.84%. With O=S(=O)(c1ccccc1F)N1CC[C@@H]2[C@H](CO)Nc3ccc(-c4ccccc4F)cc3[C@@H]21 the assay gave activity change (Venus) -56.38%. C[C@@H]1CN([C@@H](C)CO)S(=O)(=O)c2ccc(/C=C/c3ccccc3)cc2O[C@H]1CN(C)C(=O)c1ccc2c(c1)OCO2 gave activity change (Venus) -38.28%. Result for CC(C)C#Cc1ccc2c(c1)O[C@@H](CN(C)C(=O)c1ccccc1)[C@@H](C)CN([C@@H](C)CO)S2(=O)=O was activity change (Venus) -23.69%.

C[C@@H]1CN([C@H](C)CO)C(=O)c2c(c3ccccc3n2C)-c2ccccc2CO[C@@H]1CN(C)C(=O)Nc1cccc(F)c1 gave activity change (Venus) -30.1%. Result for CCCNC(=O)N1CC(=O)N2[C@H](C1)[C@@H](c1ccc(C#CCC3CCCC3)cc1)[C@@H]2CO was activity change (Venus) -39.17%. COc1ccccc1-c1ccc2c(c1)[C@@H]1[C@@H](CCN1C(=O)c1ccncc1)[C@@H](CO)N2 read activity change (Venus) -31.88%. With C[C@@H]1CCCCO[C@H](CN(C)Cc2ccc(Cl)c(Cl)c2)[C@H](C)CN([C@@H](C)CO)C(=O)c2cc(NS(C)(=O)=O)ccc2O1 the assay gave activity change (Venus) -66.83%.

For C[C@H](CO)N1C[C@H](C)[C@@H](CN(C)Cc2ccc(Cl)c(Cl)c2)Oc2ccc(NC(=O)Nc3ccccc3)cc2CC1=O the result was activity change (Venus) -22.43%. With Cc1ccc(S(=O)(=O)Nc2ccc3c(c2)C(=O)N([C@@H](C)CO)C[C@H](C)[C@H](CN(C)C(=O)NC2CCCCC2)OCCCC[C@H](C)O3)cc1 the assay gave activity change (Venus) -44.92%. For C/C=C/c1ccc2c(c1)O[C@H](CN(C)Cc1ccc(F)cc1)[C@@H](C)CN([C@H](C)CO)S2(=O)=O the result was activity change (Venus) -43.26%. With C[C@@H]1CN([C@H](C)CO)C(=O)c2c(c3ccccc3n2C)-c2ccccc2CO[C@@H]1CN(C)Cc1ccc2c(c1)OCCN2C the assay gave activity change (Venus) -38.65%.

With Cc1ccc(S(=O)(=O)N(C)C[C@H]2OCCCC[C@H](C)Oc3ccc(NS(=O)(=O)c4ccccc4)cc3C(=O)N([C@H](C)CO)C[C@@H]2C)cc1 the assay gave activity change (Venus) -42.08%. For C[C@@H]1CN([C@H](C)CO)C(=O)Cc2cc(NS(C)(=O)=O)ccc2O[C@@H]1CN(C)Cc1ccc(Cl)c(Cl)c1 the result was activity change (Venus) -35.07%. C[C@@H]1CN([C@H](C)CO)C(=O)Cc2cc(NC(=O)Nc3ccc(C(F)(F)F)cc3)ccc2O[C@@H]1CN(C)Cc1ccc(Cl)c(Cl)c1 gave activity change (Venus) -40.1%. With C[C@@H]1CCCCO[C@@H](CN(C)Cc2ccccc2)[C@@H](C)CN([C@@H](C)CO)C(=O)c2cc(NC(=O)Nc3cccc4ccccc34)ccc2O1 the assay gave activity change (Venus) -27.43%.

With C[C@@H]1CN([C@H](C)CO)C(=O)Cc2cc(NC(=O)Cc3ccccc3)ccc2O[C@@H]1CN(C)Cc1ccc(Oc2ccccc2)cc1 the assay gave activity change (Venus) -45.96%. For C[C@H](CO)N1C[C@H](C)[C@@H](CN(C)Cc2ccc(Oc3ccccc3)cc2)Oc2ccc(NS(=O)(=O)c3ccc(F)cc3)cc2CC1=O the result was activity change (Venus) -66.38%. COc1ccc(S(=O)(=O)Nc2ccc3c(c2)C(=O)N([C@H](C)CO)C[C@@H](C)[C@H](CN(C)C(=O)C2CCCCC2)OCCCC[C@H](C)O3)cc1 gave activity change (Venus) -31.59%. For COc1cccc(-c2ccc3c(c2)[C@@H]2[C@@H](CCN2C(=O)NC2CCCCC2)[C@H](CO)N3C)c1 the result was activity change (Venus) -65.53%.

COc1cccc(S(=O)(=O)N2CCCCN3[C@@H](CO)[C@@H](c4ccc(-c5ccccc5)cc4)[C@@H]3C2)c1 gave activity change (Venus) -41.96%. C[C@H](CO)N1C[C@H](C)[C@@H](CN(C)C(=O)CN(C)C)Oc2cc(C#Cc3ccc(F)cc3)ccc2S1(=O)=O gave activity change (Venus) -44.4%.

Some entries from above, unchanged:

Compound,activity change (Venus) (%)
Cc1ccc(S(=O)(=O)Nc2ccc3c(c2)C(=O)N([C@@H](C)CO)C[C@H](C)[C@H](CN(C)C(=O)NC2CCCCC2)OCCCC[C@H](C)O3)cc1,-44.92
CC(C)C#Cc1ccc2c(c1)O[C@@H](CN(C)C(=O)c1ccccc1)[C@@H](C)CN([C@@H](C)CO)S2(=O)=O,-23.69
CCCNC(=O)N1CC(=O)N2[C@H](C1)[C@@H](c1ccc(C#CCC3CCCC3)cc1)[C@@H]2CO,-39.17